Data reported in paper PMC9254494, “Modulation of synaptic plasticity, motor unit physiology, and TDP-43 pathology by CHCHD10” (Acta Neuropathologica Communications, 2022).
Results are given in words; binding and its absence hold for the method and conditions named. Tags and fused reporters may be left off the sequences shown.

Target: T1, His-tagged CHCHD10^WT recombinant protein (human), Q8WYQ3
T1 chain: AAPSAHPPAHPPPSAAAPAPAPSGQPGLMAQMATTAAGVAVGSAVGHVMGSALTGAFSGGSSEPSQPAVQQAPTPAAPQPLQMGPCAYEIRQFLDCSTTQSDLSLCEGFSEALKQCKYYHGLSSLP
Assay: filter trap assay; purified protein incubated by itself at 1 μM, 37 °C, 8 h, vigorous shaking (1200 rpm); filtered through 0.2 μm cellulose acetate membrane, retained aggregates probed with antibody; both purified
Settings: remark: other sources report otherwise

binding: no binding (tested: 1 μM)
B1: His-tagged CHCHD10^WT recombinant protein, Q8WYQ3 17-142 (protein)
chain: AAPSAHPPAHPPPSAAAPAPAPSGQPGLMAQMATTAAGVAVGSAVGHVMGSALTGAFSGGSSEPSQPAVQQAPTPAAPQPLQMGPCAYEIRQFLDCSTTQSDLSLCEGFSEALKQCKYYHGLSSLP
